# Measured values: PubChem BioAssay AID493014 (National Center for Advancing Translational Sciences (NCATS), 2011)
# The other results are listed elsewhere or left out. These are further read-outs of the screen, such as a control signal, another cell line or another target. No call is given for them. Most of these compounds were active or inconclusive in the main read-out, so they are no random draw. Potencies come from curve fits of mixed quality, noted in brackets.
# Assay: qHTS Assay to Find Inhibitors of Chronic Active B-Cell Receptor Signaling
# Conditions: ABC-DLBCL IkBa-CBG/CBR reporter, luminescence ratio (green luciferase fused to IkBa over red control in TMD8 lymphoma cells), 4 h
# How it was run: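 Doxycycline induced both beetle luciferases in TMD8 lymphoma cells; IKK-driven degradation limits the IkappaBalpha-fused green signal, while red luminescence normalises for cell number and nonspecific effects. Compounds tested up to 46 uM, 4 hrs.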
# [1] = measured here: CBR red luminescence, cell number
# [2] = measured here: IkBa-CBG green luminescence
Structure (SMILES),AC50 [1],AC50 [2]
CCOc1ccc(N(C)Cc2cc(=O)oc3ccc(OC)cc23)cc1,"6.31 µM [rising, single point]",–
COC(=O)C(O)(CC(=O)Nc1ccc(C)c(F)c1)C(F)(F)F (configuration not stated),"32.6 µM [rising, single point]",–
N#Cc1cc(NCC2CCCO2)c([N+](=O)[O-])cc1C#N (configuration not stated),"25.9 µM [rising, partial curve, poor fit]",–
COc1ccc(NC(=O)/C=C/c2ccccc2)cn1,"14.6 µM [falling, partial curve, poor fit]",–
CCCCCCSc1nsc(NC(C)=O)n1,"1.58 µM [rising, full curve, poor fit]",–
CCOC(=O)C1=C(N)OC2=C(C(=O)CCC2)C1c1cccnc1 (configuration not stated),"35.5 µM [falling, single point]",–
CCN(CC)CCNC(=O)c1ccc(Cl)c(S(=O)(=O)N2CCCCCC2)c1,"0.82 µM [falling, full curve, poor fit]",–
CC(=O)Cc1nsc(NC(=O)c2ccc(COc3ccccc3C)o2)n1,"8.91 µM [falling, partial curve, poor fit]",–
COc1ccc(-c2cc3ncc(-c4ccccc4)c(N)n3n2)cc1,"1 µM [falling, full curve]",–
COc1ccccc1NC(=O)c1ccc(NC(=O)CSc2ncn[nH]2)cc1,"3.66 µM [rising, full curve, poor fit]",–
COc1ccccc1CNC(=O)CN(CCc1ccccc1)S(C)(=O)=O,"0.794 µM [rising, partial curve, poor fit]",–
CCOC(=O)N1CCC(NC(=O)CCC(=O)N2CC(C)Oc3ccc(Cl)cc32)CC1 (configuration not stated),"0.164 µM [rising, full curve, poor fit]",–
CC(C)c1ccc(NC(=O)CSC(C)c2nc3ccccc3c(=O)[nH]2)cc1 (configuration not stated),"35.5 µM [rising, single point]",–
O=c1ccc(-c2ccccc2)nn1Cc1ccc(F)cc1,"0.708 µM [rising, full curve, poor fit]",–
Cc1ccc(Cl)cc1N1CCN(C(=O)c2ccccc2SCC(=O)N2CCCC2)CC1,"29.1 µM [falling, single point]",–
CCCCn1c(N)c(C(=S)NC(=O)CC(C)(C)C)c(=O)n(C)c1=O,"20.6 µM [rising, single point]",–
CCOC(=O)Cc1csc(NC(=O)COc2cc(C)cc(C)c2)n1,"11.2 µM [falling, partial curve, poor fit]",–
Cc1ccc(C(=O)OCc2cn3ccccc3n2)cc1,"29.1 µM [rising, single point]",–
COc1ccc(/C=N/NC(=O)c2ccccc2NC(=O)c2ccco2)c(OC)c1,"17.8 µM [falling, partial curve, poor fit]",–
CCn1c(SCC(=O)c2ccccc2)nc2ccccc2c1=O,"7.94 µM [falling, partial curve]",–
COc1ccccc1C(=O)Nc1nnc(-c2ccc3c(c2)CCCC3)o1,–,"28.2 µM [falling, single point]"

Structure (SMILES),AC50 [1],AC50 [2]
COCCNC(=O)c1c[nH]c2ccc(OC)cc2c1=O,"35.5 µM [falling, single point]",–
COc1cc(/C=N/NC(=O)c2cc(-c3ccccc3)sc2N)cc(OC)c1OC,"25.1 µM [falling, single point]",–
COC(=O)/C=C/COc1ccccc1[N+](=O)[O-],"35.5 µM [falling, single point]",–
O=C(OCC(=O)N1CCc2ccccc21)[C@@H]1CC(O)CN1S(=O)(=O)c1ccccc1[N+](=O)[O-] (some centres not stated),"25.9 µM [rising, single point]",–
Cc1noc(C)c1CSCC(=O)Nc1nc(-c2ccc(F)c(F)c2)cs1,"9.2 µM [falling, partial curve]","9.2 µM [rising, partial curve, poor fit]"
C=CCNC(=O)c1nc2ccccc2s1,"14.6 µM [falling, partial curve]",–
CC(C)(C)C(=O)Nc1cc(C(F)(F)F)ccc1N1CCOCC1,"29.1 µM [falling, single point]",–
O=C(O)CCC(=O)Nc1ccc2c(c1)Cc1cc(NC(=O)CCC(=O)O)ccc1-2,"14.1 µM [falling, partial curve]",–
C=CCn1c(=N)n(CC(=O)c2ccccc2)c2ccccc21,"0.398 µM [rising, full curve, poor fit]",–
Cc1cc(C)cc(NC(=S)N2CCN(c3ncc(C(F)(F)F)cc3Cl)CC2)c1,"0.501 µM [falling, partial curve, poor fit]",–
Cc1ccc(NC(=O)c2ccccc2NS(=O)(=O)c2ccc(Cl)s2)cc1,–,"6.51 µM [rising, partial curve, poor fit]"
Cc1ccccc1C(=O)OCCN(C)Cc1ccccc1,"0.631 µM [rising, full curve, poor fit]",–
CCC(=O)N1N=C(c2cccc(NS(C)(=O)=O)c2)CC1c1cccs1 (configuration not stated),"29.1 µM [falling, single point]",–
CSc1cccc(NC(=O)Nc2nc3c(C)cccc3s2)c1,"1.58 µM [falling, full curve]",–
Nc1c(Cl)cnc(C(Cl)(Cl)Cl)c1Cl,"14.1 µM [rising, partial curve, poor fit]",–
NC(=S)Nc1cccc2[nH]ccc12,"3.55 µM [falling, partial curve]",–
CCc1cccc(NC(=O)CCC(=O)O)c1,"0.206 µM [rising, full curve, poor fit]",–
CCN(CC(=O)Nc1ccc(OC)cc1)C(=O)CSCC(=O)Nc1ccc(C)cc1,"4.47 µM [rising, partial curve, poor fit]",–
COc1ccc2nc(/C(C#N)=C\c3ccc(Oc4ccc([N+](=O)[O-])cn4)cc3)[nH]c2c1,"32.6 µM [falling, single point]","29.1 µM [rising, partial curve, poor fit]"
Cc1ccc(C(=O)Nc2ccccc2C(=O)NC(C(=O)O)C(C)C)cc1 (configuration not stated),"8.91 µM [falling, partial curve]",–
CS(=O)(=O)Nc1ccc(C(=O)NCCSCc2c(F)cccc2Cl)cc1,"35.5 µM [falling, single point]",–

# Another view of some results above.
Structure (SMILES)	AC50 [1]	AC50 [2]
CCOc1ccc(N(C)Cc2cc(=O)oc3ccc(OC)cc23)cc1	6.31 µM [rising, single point]	–
COc1ccc(-c2cc3ncc(-c4ccccc4)c(N)n3n2)cc1	1 µM [falling, full curve]	–
Cc1ccc(Cl)cc1N1CCN(C(=O)c2ccccc2SCC(=O)N2CCCC2)CC1	29.1 µM [falling, single point]	–
CCCCn1c(N)c(C(=S)NC(=O)CC(C)(C)C)c(=O)n(C)c1=O	20.6 µM [rising, single point]	–
COc1ccccc1C(=O)Nc1nnc(-c2ccc3c(c2)CCCC3)o1	–	28.2 µM [falling, single point]
COCCNC(=O)c1c[nH]c2ccc(OC)cc2c1=O	35.5 µM [falling, single point]	–
COc1cc(/C=N/NC(=O)c2cc(-c3ccccc3)sc2N)cc(OC)c1OC	25.1 µM [falling, single point]	–
C=CCNC(=O)c1nc2ccccc2s1	14.6 µM [falling, partial curve]	–
CC(C)(C)C(=O)Nc1cc(C(F)(F)F)ccc1N1CCOCC1	29.1 µM [falling, single point]	–
Cc1cc(C)cc(NC(=S)N2CCN(c3ncc(C(F)(F)F)cc3Cl)CC2)c1	0.501 µM [falling, partial curve, poor fit]	–
Cc1ccccc1C(=O)OCCN(C)Cc1ccccc1	0.631 µM [rising, full curve, poor fit]	–
Nc1c(Cl)cnc(C(Cl)(Cl)Cl)c1Cl	14.1 µM [rising, partial curve, poor fit]	–
CCN(CC(=O)Nc1ccc(OC)cc1)C(=O)CSCC(=O)Nc1ccc(C)cc1	4.47 µM [rising, partial curve, poor fit]	–

# 2 records picked at random from those above, as already listed:
Structure (SMILES),AC50 [1],AC50 [2]
CCc1cccc(NC(=O)CCC(=O)O)c1,"0.206 µM [rising, full curve, poor fit]",–
Cc1ccc(NC(=O)c2ccccc2NS(=O)(=O)c2ccc(Cl)s2)cc1,–,"6.51 µM [rising, partial curve, poor fit]"

# More records:

Structure (SMILES),AC50 [1],AC50 [2]
COCCCNC(=O)Cn1nnc(-c2ccccc2NC(=O)c2ccc(F)cc2)n1,"3.55 µM [falling, partial curve, poor fit]",–
O=C(OCC(=O)c1ccc[nH]1)c1ccc(Cl)c(Cl)c1,"29.1 µM [falling, single point]","23.1 µM [falling, partial curve, poor fit]"
CCOc1ccc(NC(=O)c2cc(S(=O)(=O)N3CCOCC3)ccc2F)cc1,"7.08 µM [falling, full curve, poor fit]",–
CC1Cc2ccccc2N1Cc1cc(=O)c(OCC(=O)Nc2ccccc2)co1 (configuration not stated),"6.51 µM [rising, single point]",–
CC(C)c1ccc(OCC(=O)NC2=NCCS2)cc1,"3.98 µM [rising, single point]",–
COc1cccc(C(=O)Nc2cccc(-c3nc4ncccc4o3)c2C)c1,"7.08 µM [falling, partial curve, poor fit]",–
CC1CCC2CCCCC2N1C(=O)c1cc([N+](=O)[O-])cc([N+](=O)[O-])c1 (configuration not stated),"0.282 µM [falling, full curve, poor fit]",–
CCCCCCCCCn1c2c(c(=N)c3c1CCC3)CCC2,"0.82 µM [falling, full curve, poor fit]","23.1 µM [rising, partial curve, poor fit]"
O=C(NC(=O)c1ccccc1O)c1ccc(C(F)(F)F)cc1,"2.24 µM [falling, full curve]",–
COc1ccccc1-n1c(-c2ccc(Cl)cc2)c[nH]c1=S,"25.1 µM [falling, single point]",–
CC[n+]1c(/C=C/c2ccc(OC(C)=O)c(OC)c2)ccc2ccccc21,"6.31 µM [rising, partial curve, poor fit]",–
O=C(NC(=S)NNC(=O)c1cccs1)c1ccccc1,"6.31 µM [falling, partial curve]",–
O=C(CCCn1c(=O)oc2ccccc21)N1CCN(c2ccc(F)cc2)CC1,"3.16 µM [rising, partial curve, poor fit]",–
Nc1nc(-c2ccccc2)nc2sc3c(c12)CCCC3,"16.4 µM [falling, partial curve, poor fit]",–
Cc1ccc(NC(=O)CN(C)CC(=O)Nc2ccc(N3CCOCC3)cc2)c([N+](=O)[O-])c1,"4.61 µM [rising, full curve, poor fit]",–
CCOc1ccc2nc(COC(=O)c3cccs3)c(C(C)=O)[n+]([O-])c2c1,"35.5 µM [falling, single point]",–
Cc1ccsc1C1C(C#N)=C(N)Oc2n[nH]c(C)c21 (configuration not stated),"10 µM [falling, partial curve]",–
Cc1cccc(OCC(=O)Nc2ccc3c(c2)nc(CCN2CCN(c4ccccn4)CC2)n3C)c1,"22.4 µM [falling, single point]",–
CCN1C(=O)C(c2ccc(O)cc2)(c2ccc(O)cc2)c2ccccc21,"11.2 µM [falling, partial curve]",–
Nc1c(Cl)cc(C2=NCCn3nc4cc([N+](=O)[O-])ccc4c32)cc1Cl,"1.46 µM [falling, partial curve, poor fit]",–
O=C(Nc1cccc(OCC(=O)N2CCOCC2)c1)c1ccc(C(F)(F)F)cc1,"17.8 µM [falling, partial curve, poor fit]",–
